Data from article PMC10850816.

Biological target: T1, FLAG-FERM-JAK2 (45 kDa JAK2 variant) (human) (UniProt O60674)
T1 sequence: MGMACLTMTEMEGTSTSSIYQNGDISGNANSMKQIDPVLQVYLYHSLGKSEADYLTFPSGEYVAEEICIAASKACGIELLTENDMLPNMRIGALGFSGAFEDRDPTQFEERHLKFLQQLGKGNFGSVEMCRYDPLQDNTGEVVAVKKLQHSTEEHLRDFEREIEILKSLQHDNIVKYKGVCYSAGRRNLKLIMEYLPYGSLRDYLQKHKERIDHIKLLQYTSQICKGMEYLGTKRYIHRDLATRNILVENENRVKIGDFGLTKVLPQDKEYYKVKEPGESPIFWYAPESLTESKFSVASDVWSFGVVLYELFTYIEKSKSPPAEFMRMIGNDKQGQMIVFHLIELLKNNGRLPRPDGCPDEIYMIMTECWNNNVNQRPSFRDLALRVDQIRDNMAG
Assay: co-IP; FLAG immunoprecipitation from Ba/F3 cells expressing FLAG-FERM-JAK2 or FLAG-JAK2-V617F, immunoblot (Fig. 3A)

STAT5 (endogenous in Ba/F3 cells) (mouse (endogenous in Ba/F3))
binding: binds

These are yes or no findings as the source states them, for the method shown. In cells and extracts the contact can be indirect. Binding can be weak; no strength is given. Where a sequence is shown, tags or fusion partners need not be part of it.
